# Measurements reported in PubChem BioAssay AID652272 (Drosophila RNAi Screening Center, 2013)
# Test: 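Genome-wide knock-down search for components of Hedgehog signalling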 (primary screen)
# Cells: Drosophila clone 8 (Cl8) cells
# Reagent: long dsRNA against Drosophila genes
# Measured: 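Plate reader light from a firefly reporter under a ptc promoter fragment that responds to Hedgehog, with Renilla light as transfection reference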
# Direction: firefly Hh reporter signal: higher = more ptc reporter light; Renilla reference signal: higher = more Renilla control light
# Rule for the call: 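Called a hit if the two-replicate mean z-score lies below -2 or above +3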
# Calls: active = hit: reporter lowered or raised; inactive = not a hit
# In all, the deposit lists about 21,000 reagents; shown is an unselected part of those with a known target gene and a result. In the full data, 503 (2.4%) were called active. 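Raw plate light values, not normalised; calls rest on replicate z-scores that were not deposited; hits include reporter decreases as well as increases.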 Not given: the amount of reagent, the time to read-out.
target gene,dsRNA,"firefly Hh reporter signal, replicate 1","firefly Hh reporter signal, replicate 2","Renilla reference signal, replicate 1","Renilla reference signal, replicate 2",outcome
CG4781,DRSC04488,97193,74205,2373,6294,inactive
bocks,DRSC16489,1.53e5,1.17e5,6784,5315,inactive
Cyp6w1,DRSC04909,1.23e5,79699,5013,3194,inactive
Osi10b,DRSC12279,70073,97528,2867,2765,inactive
cbt,DRSC00655,81586,48434,3385,2416,inactive
CG44836,DRSC09915,79019,,4359,2344,inactive
CG16813,DRSC02520,1.98e5,68544,4951,5457,inactive
Delta,DRSC16648,6.56e5,96201,31453,2601,inactive
Hpd,DRSC11670,1.16e5,95825,4363,4145,inactive
CR43361,DRSC17206,89769,2.46e5,2204,8290,inactive
Ir76a,DRSC10987,89664,64484,3635,2919,inactive
Efr,DRSC18322,61872,2.07e5,2173,7946,inactive
Src64B,DRSC08700,43493,47357,5179,3525,inactive
gnu,DRSC10497,93688,58451,3668,2188,inactive
numb,DRSC03584,60758,81450,2618,3282,inactive
CG17672,DRSC09230,46473,,1636,,inactive
CG17672,DRSC10278,1.73e5,71611,6384,2051,inactive

Laid out differently: results already given
Osi10b [DRSC12279] | firefly Hh reporter signal, replicate 1: 70073; firefly Hh reporter signal, replicate 2: 97528; Renilla reference signal, replicate 1: 2867; Renilla reference signal, replicate 2: 2765; outcome: inactive
cbt [DRSC00655] | firefly Hh reporter signal, replicate 1: 81586; firefly Hh reporter signal, replicate 2: 48434; Renilla reference signal, replicate 1: 3385; Renilla reference signal, replicate 2: 2416; outcome: inactive
CG44836 [DRSC09915] | firefly Hh reporter signal, replicate 1: 79019; Renilla reference signal, replicate 1: 4359; Renilla reference signal, replicate 2: 2344; outcome: inactive
CG16813 [DRSC02520] | firefly Hh reporter signal, replicate 1: 1.98e5; firefly Hh reporter signal, replicate 2: 68544; Renilla reference signal, replicate 1: 4951; Renilla reference signal, replicate 2: 5457; outcome: inactive
Delta [DRSC16648] | firefly Hh reporter signal, replicate 1: 6.56e5; firefly Hh reporter signal, replicate 2: 96201; Renilla reference signal, replicate 1: 31453; Renilla reference signal, replicate 2: 2601; outcome: inactive
Hpd [DRSC11670] | firefly Hh reporter signal, replicate 1: 1.16e5; firefly Hh reporter signal, replicate 2: 95825; Renilla reference signal, replicate 1: 4363; Renilla reference signal, replicate 2: 4145; outcome: inactive
CR43361 [DRSC17206] | firefly Hh reporter signal, replicate 1: 89769; firefly Hh reporter signal, replicate 2: 2.46e5; Renilla reference signal, replicate 1: 2204; Renilla reference signal, replicate 2: 8290; outcome: inactive

Continued:
target gene,dsRNA,"firefly Hh reporter signal, replicate 1","firefly Hh reporter signal, replicate 2","Renilla reference signal, replicate 1","Renilla reference signal, replicate 2",outcome
Nepl17,DRSC14880,83691,1.05e5,2812,3649,inactive
AstC-R1,DRSC10799,1.94e5,,7194,4920,inactive
CG5273,DRSC18612,95083,1.81e5,3488,6583,inactive
SK,DRSC17387,4.71e5,1.60e5,22828,2103,inactive
SK,DRSC17751,97392,2.83e5,2198,11413,inactive
SK,DRSC17887,72908,1.74e5,1376,7208,inactive
SK,DRSC17888,60480,1.32e5,854,4321,active
SK,DRSC18353,92756,66041,2016,1588,inactive
CG13630,DRSC14631,93293,1.05e5,4160,4249,inactive
Not3,DRSC04908,33211,37764,2454,2554,active
wor,DRSC03637,80688,53597,2364,4869,inactive
Mfap1,DRSC08154,55072,45923,3691,2821,active
CG13252,DRSC11700,91644,95144,3305,2777,inactive
Jhbp6,DRSC11714,92394,1.15e5,3115,2821,inactive
VhaAC45RP,DRSC15423,4.65e5,81067,3420,3420,inactive
RhoGAP18B,DRSC19763,52489,2.21e5,928,8906,inactive
RhoGAP18B,DRSC20047,62742,1.86e5,1705,8208,inactive
RhoGAP18B,DRSC20048,76056,1.86e5,1987,6217,inactive
RhoGAP18B,DRSC20049,80634,66492,8008,2384,active
CG4679,DRSC06880,78464,34139,2152,2771,inactive
CG8152,DRSC07083,84912,65192,1907,5047,inactive
eEF5,DRSC04681,72881,76728,1568,7337,inactive
